# Experimental data taken from patent publication US7414140B2 (Teva Pharmaceutical Industries Ltd., priority 2003, dated 2008).
# “Also recorded” adds a separate entry of the source. At least one structure is not confirmed: it was looked up by name or label, or the drawing left a doubt.
# Experiments:
# [1] = Exposure to controlled relative humidity: water uptake and crystal form; format: physicochemical
# Weight loss by TGA = format: physicochemical
# [2] = Water content by Karl Fisher; format: physicochemical; conditions: for Water Content (KF) / Water Content: summary table; for Water Content (KF): first Water Content column; for Water Content: second Water Content column (overall range); for Hydration: hydrated state assigned from water content
# [3] = Solubility of fluvastatin sodium in solvents; format: physicochemical; conditions: room temperature, per one gram
# Source text: Fluvastatin sodium Form XLI can be prepared by precipitating fluvastatin sodium from a mixture of water and acetonitrile. Fluvastatin sodium should first be dissolved in water. The water may be heated in order to produce a more concentrated solution and maximized recovery of Form XLI. […] The addition is done at whatever elevated temperature was used to dissolve the starting material or at higher temperature. The addition is dropwise and will generally require adding a excess of acetonitrile over the amount of water that was used. For example, we used a little less than four volumes of acetonitrile. The resulting heterogeneous mixture is then allowed to cool. Before isolating the fluvastatin sodium Form XLI that precipitates. The recovery can be improved by adding an addition portion of acetonitrile after cooling.
# Fluvastatin sodium Form L can be prepared by precipitation from a mixture of methanol and ethyl acetate. The fluvastatin sodium starting material, in any crystalline form or amorphous, should first be dissolved in the methanol. […] The starting material can be dissolved either at ambient or elevated temperature, e.g. the boiling point of methanol. Once dissolved, precipitation of Form L is induced by dropwise addition of ethyl acetate to the solution at elevated temperature. The amount of ethyl acetate used is preferably about three times the volume of methanol. […]
# [4] = as reported in US 6,124,340; cited from earlier work
# [5] = equilibrated at 0% RH for 11 days
# [6] = equilibrated at 20% RH for 11 days
# [7] = equilibrated at 40% RH for 11 days
# [8] = equilibrated at 60% RH for 11 days
# [9] = equilibrated at 80% RH for 11 days
# [10] = equilibrated at 100% RH for 11 days
smiles,measurement,setting,value
"CC(C)n1c(/C=C/C(O)CC(O)CC(=O)O)c(-c2ccc(F)cc2)c2ccccc21 (single isomer, unassigned) [Form XI, fluvastatin sodium]",Equilibrated water content,[1]; 20-60% RH for 11 days,1.1-5.6%
same,Water content after transformation,[1]; 80% and 100% RH for 11 days,19-28%
same,Water Content by KF,[1]; [5],2.0-2.4%
same,Weight loss by TGA,[1]; [5],6.5%
same,Water Content by KF,[1]; [6],1.1-5.6%
same,Weight loss by TGA,[1]; [6],5.0%
same,Water Content by KF,[1]; [7],3.0-3.6%
same,Weight loss by TGA,[1]; [7],4.5%
same,Water Content by KF,[1]; [8],3.5-3.6%
same,Weight loss by TGA,[1]; [8],4.7%
same,Water Content by KF,[1]; [9],19.5-22.6%
same,Weight loss by TGA,[1]; [9],22.0%
same,Water Content by KF,[1]; [10],28.0-28.4%
same,Weight loss by TGA,[1]; [10],26.2%
same,Weight loss by TGA,Weight loss by TGA,6-8%
same,Weight loss by TGA,Weight loss by TGA; listed as XI,6-8% TGA +
same,Water content measured by Karl Fisher,[2],4-6 wt. %
same,Water Content (KF),[2],4-6% KT
same,Water Content,[2],1-6%
"CC(C)n1c(/C=C/C(O)CC(O)CC(=O)O)c(-c2ccc(F)cc2)c2ccccc21 (stereo not drawn) [Fluvastatin sodium, [R*,S*-(E)]-(±)-7-[3-(4-fluorophenyl)-1-(1-methylethyl)-1H-indol-2-yl]-3,5-dihydroxy-6-heptenoic acid monosodium]",Volume of methanol that dissolves one gram,[3],≥ 7 mL
"CC(C)n1c(/C=C/C(O)CC(O)CC(=O)O)c(-c2ccc(F)cc2)c2ccccc21 (centres unmarked) [Form B, fluvastatin sodium]",Hygroscopicity,[4],low hygroscopicity; also recorded: less hygroscopic
"CC(C)n1c(/C=C/C(O)CC(O)CC(=O)O)c(-c2ccc(F)cc2)c2ccccc21 (centres unmarked) [Form IV-1, fluvastatin sodium]",Crystal Form,[1]; [9],Form XIX
same,Crystal Form,[1]; [10],Form XIX
same,Weight loss by TGA,Weight loss by TGA,about 10.5 wt. %
same,Weight loss by TGA,Weight loss by TGA; listed as IV-1,10.5% TGA
same,Water content measured by Karl Fisher,[2],2.1-2.6 wt. %
same,Water Content (KF),[2],2.1-2.6%
same,Water Content,[2],2-3%
"CC(C)n1c(/C=C/C(O)CC(O)CC(=O)O)c(-c2ccc(F)cc2)c2ccccc21 (centres unmarked) [Form VI, fluvastatin sodium]",Equilibrated water content,[1]; 0-40% RH for 12 days,3-5%
same,Weight loss by TGA,Weight loss by TGA,about 12%
same,Weight loss by TGA,Weight loss by TGA; listed as VI,12% TGA
same,Water content measured by Karl Fisher,[2],5.0-5.6 wt. %
same,Water Content (KF),[2],5.0-5.6%
same,Water Content,[2],5-6%
"CC(C)n1c(/C=C/C(O)CC(O)CC(=O)O)c(-c2ccc(F)cc2)c2ccccc21 (centres unmarked) [Form XI-2, fluvastatin sodium]",Equilibrated water content,[1]; 0-60% RH for 11 days,5-7%
same,Weight loss by TGA,Weight loss by TGA,7.7%
same,Weight loss by TGA,Weight loss by TGA; listed as XI-2,7.7% TGA
same,Water content measured by Karl Fisher,[2],1.9-3.2 wt. %
same,Water Content (KF),[2],1.9-3.2%
same,Water Content,[2],2-3%
"CC(C)n1c(/C=C/C(O)CC(O)CC(=O)O)c(-c2ccc(F)cc2)c2ccccc21 (centres unmarked) [Form XVI, fluvastatin sodium]",Crystal form recovered,[1]; about 80% RH for 1 days,Form XX
same,Crystal form recovered,[1]; about 80% RH for 24 days,Form XIX
same,Crystal form recovered,[1]; about 100% RH for 24 days,Form XIX
same,Weight loss by TGA,Weight loss by TGA,8.7 wt. %
same,Weight loss by TGA,Weight loss by TGA; listed as XVI,8.7% TGA
same,Water content measured by Karl Fisher,[2],3-4 wt. %
same,Water Content (KF),[2],3-4% KF
same,Water Content,[2],3-4%
"CC(C)n1c(/C=C/C(O)CC(O)CC(=O)O)c(-c2ccc(F)cc2)c2ccccc21 (centres unmarked) [Form XVIII, fluvastatin sodium]",Crystal form recovered,[1]; about 80% RH for 25 days,form XLVII
same,Weight loss by TGA,Weight loss by TGA,about 4 wt. %
same,Weight loss by TGA,Weight loss by TGA; listed as XVIII,4% TGA
same,Water content measured by Karl Fisher,[2],about 4 wt. %
same,Hydration,[2],monohydrate (monohydrate (water content about 3-4%))
same,Hydration,[2]; listed as XVIII,monohydrate (monohydrate (water content about 3-4%))
same,Water Content (KF),[2],4% KF
same,Water Content,[2],4%
